Results published in patent publication US10172356B2, “Bipyridine compound and use of same for noxious arthropod control” (Sumitomo Chemical Company, Limited, priority 2015, dated 2019).
Some results were stated once for a whole list of compounds, not compound by compound.

Assays:
Format in all cases: in vivo
[1] = tested on: cotton aphid (Aphis gossypii); assay: Test Example 2: cotton aphid on cucumber seedling, spray of diluted solution, 200 ppm; settings: 20 mL sprayed on cucumber seedling, after 6 days
[2] = tested on: cotton aphid (Aphis gossypii); assay: Test Example 1: cotton aphid on cucumber seedling, spray of diluted solution, 500 ppm; settings: 20 mL sprayed on cucumber seedling, after 6 days
[3] = tested on: cotton aphid (Aphis gossypii); assay: Test Example 3: cotton aphid on cucumber seedling, irrigation into the plant foot, 200 ppm; settings: 5 mL irrigated into the plant foot, aphids inoculated after 7 days, examined after additional 6 days
[4] = tested on: brown planthopper (Nilaparvata lugens); assay: Test Example 4: brown planthopper on rice seedling, spray, 500 ppm; settings: 10 mL sprayed on rice seedling, after 6 days, 25° C.
[5] = tested on: brown planthopper (Nilaparvata lugens); assay: Test Example 5: brown planthopper on rice seedling, spray, 200 ppm; settings: 10 mL sprayed on rice seedling, after 6 days, 25° C.
[6] = tested on: brown planthopper (Nilaparvata lugens); assay: Test Example 6: brown planthopper on rice seedling, irrigation into the plant foot, 200 ppm; settings: 5 mL irrigated into the plant foot, larvae released after 7 days, examined after additional 6 days

Measured: Controlling value

CCS(=O)(=O)c1cccnc1-c1ccc(OS(=O)(=O)C(F)(F)F)cn1 [Compound O-1]
≥ 90%: [1] | [2] | [3]

CCS(=O)(=O)c1cccnc1-c1ccc(OS(=O)(=O)CC(F)(F)F)cn1 [Compound O-2]
≥ 90%: [1] | [2] | [3] | [4] | [5] | [6]

CCS(=O)(=O)c1cccnc1-c1ccc(SCC(F)(F)F)cn1 [Compound S-1]
≥ 90%: [1] | [2] | [3] | [4] | [5]

CCS(=O)(=O)c1cccnc1-c1ccc(SCC(F)(F)C(F)(F)F)cn1 [Compound S-4]
≥ 90%: [2]

CCS(=O)(=O)c1cccnc1-c1ccc(S(=O)(=O)CC(F)(F)C(F)(F)F)cn1 [Compound S-6]
≥ 90%: [2]

CCS(=O)(=O)c1cccnc1-c1ccc(SC(F)(F)F)cn1 [Compound S-7]
≥ 90%: [1] | [2] | [3] | [4] | [5] | [6]
